Some of the results follow.

The chains behind the UniProt entries cited, without tags or fusion partners. Where a name states a change or a piece, a line headed by the entry shows the natural chain unless it says otherwise.
UniProt Q9HA47: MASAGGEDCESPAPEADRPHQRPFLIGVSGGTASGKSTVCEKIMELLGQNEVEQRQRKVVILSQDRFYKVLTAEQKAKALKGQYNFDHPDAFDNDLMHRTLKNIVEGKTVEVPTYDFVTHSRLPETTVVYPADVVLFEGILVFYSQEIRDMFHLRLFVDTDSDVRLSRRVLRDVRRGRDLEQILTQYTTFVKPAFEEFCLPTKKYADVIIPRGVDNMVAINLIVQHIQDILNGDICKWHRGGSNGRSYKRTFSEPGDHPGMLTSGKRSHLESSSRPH
UniProt P0DPH7, whole entry, looked up: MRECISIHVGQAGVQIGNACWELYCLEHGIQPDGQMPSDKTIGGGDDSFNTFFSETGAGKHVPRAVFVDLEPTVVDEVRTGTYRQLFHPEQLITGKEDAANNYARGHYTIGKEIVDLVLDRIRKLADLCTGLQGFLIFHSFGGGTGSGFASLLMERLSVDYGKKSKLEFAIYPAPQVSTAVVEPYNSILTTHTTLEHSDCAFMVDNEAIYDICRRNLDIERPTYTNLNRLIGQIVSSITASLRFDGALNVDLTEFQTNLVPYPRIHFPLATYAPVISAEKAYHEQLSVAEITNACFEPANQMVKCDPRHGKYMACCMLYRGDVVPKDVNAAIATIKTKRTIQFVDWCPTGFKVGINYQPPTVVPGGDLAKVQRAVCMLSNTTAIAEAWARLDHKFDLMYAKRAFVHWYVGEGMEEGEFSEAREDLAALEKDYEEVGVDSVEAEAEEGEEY
UniProt A6NHL2: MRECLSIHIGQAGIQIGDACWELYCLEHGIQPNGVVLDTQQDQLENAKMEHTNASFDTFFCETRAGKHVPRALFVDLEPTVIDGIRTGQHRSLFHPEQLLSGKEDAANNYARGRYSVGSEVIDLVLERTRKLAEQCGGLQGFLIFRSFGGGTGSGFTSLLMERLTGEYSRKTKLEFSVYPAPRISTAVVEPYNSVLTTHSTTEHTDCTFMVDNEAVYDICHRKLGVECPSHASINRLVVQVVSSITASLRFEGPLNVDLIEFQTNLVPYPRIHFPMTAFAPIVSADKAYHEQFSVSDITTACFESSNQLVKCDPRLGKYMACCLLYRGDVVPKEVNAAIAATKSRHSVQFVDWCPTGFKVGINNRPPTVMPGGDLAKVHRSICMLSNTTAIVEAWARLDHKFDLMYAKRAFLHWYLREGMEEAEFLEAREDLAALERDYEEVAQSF
UniProt Q92575: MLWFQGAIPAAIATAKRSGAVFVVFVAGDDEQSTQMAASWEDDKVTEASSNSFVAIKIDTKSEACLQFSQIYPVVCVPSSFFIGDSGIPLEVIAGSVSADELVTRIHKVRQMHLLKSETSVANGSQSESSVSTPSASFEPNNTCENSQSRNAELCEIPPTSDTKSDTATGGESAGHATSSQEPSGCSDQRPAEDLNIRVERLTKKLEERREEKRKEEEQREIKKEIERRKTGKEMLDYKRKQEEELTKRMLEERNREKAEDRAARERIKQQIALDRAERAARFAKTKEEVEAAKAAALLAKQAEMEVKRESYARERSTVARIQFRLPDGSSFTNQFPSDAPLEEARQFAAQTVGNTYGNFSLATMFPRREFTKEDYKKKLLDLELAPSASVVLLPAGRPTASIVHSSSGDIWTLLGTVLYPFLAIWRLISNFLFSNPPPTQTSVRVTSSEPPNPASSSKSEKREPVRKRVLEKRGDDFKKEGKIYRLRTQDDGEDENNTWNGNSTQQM
UniProt Q14139: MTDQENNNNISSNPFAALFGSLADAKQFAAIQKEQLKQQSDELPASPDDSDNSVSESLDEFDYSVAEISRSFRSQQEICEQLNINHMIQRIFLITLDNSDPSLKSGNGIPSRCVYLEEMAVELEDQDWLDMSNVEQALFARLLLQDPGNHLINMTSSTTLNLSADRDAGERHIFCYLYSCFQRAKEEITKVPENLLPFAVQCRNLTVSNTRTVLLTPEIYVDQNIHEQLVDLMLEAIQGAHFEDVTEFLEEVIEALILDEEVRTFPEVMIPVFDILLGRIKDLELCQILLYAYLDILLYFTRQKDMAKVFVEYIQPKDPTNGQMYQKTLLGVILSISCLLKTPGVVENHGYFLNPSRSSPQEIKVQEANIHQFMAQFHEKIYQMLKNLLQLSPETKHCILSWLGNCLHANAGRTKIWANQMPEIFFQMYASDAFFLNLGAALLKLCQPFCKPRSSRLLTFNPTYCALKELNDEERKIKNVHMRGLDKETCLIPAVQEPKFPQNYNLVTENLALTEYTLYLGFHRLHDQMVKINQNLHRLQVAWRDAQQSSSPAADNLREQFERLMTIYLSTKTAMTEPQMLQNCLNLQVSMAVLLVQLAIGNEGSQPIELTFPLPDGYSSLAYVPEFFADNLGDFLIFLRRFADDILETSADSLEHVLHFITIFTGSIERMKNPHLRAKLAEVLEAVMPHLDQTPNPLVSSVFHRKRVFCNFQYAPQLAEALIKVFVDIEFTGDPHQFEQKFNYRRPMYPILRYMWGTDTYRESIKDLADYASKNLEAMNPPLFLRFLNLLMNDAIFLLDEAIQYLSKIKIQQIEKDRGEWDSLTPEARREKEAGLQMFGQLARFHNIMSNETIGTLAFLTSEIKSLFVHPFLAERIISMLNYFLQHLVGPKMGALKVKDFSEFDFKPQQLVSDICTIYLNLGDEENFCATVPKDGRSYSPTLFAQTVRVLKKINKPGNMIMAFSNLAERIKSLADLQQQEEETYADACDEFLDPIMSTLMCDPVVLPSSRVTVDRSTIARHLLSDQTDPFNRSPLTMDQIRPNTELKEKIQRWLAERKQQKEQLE
UniProt Q9NUQ3: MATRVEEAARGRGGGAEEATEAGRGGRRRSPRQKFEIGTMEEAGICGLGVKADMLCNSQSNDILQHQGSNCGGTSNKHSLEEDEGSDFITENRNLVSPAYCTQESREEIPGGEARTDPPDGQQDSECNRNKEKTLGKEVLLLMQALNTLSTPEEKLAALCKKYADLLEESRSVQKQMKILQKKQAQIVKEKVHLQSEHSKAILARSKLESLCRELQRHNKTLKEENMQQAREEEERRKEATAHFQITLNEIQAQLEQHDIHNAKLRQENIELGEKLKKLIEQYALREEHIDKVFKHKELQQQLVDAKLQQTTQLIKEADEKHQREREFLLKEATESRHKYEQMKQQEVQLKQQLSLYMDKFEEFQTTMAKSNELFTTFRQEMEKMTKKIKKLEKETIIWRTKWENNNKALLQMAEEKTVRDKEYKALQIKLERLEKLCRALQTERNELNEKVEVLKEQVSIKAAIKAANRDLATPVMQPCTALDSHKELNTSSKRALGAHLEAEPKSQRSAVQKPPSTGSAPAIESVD
UniProt Q7Z6J8: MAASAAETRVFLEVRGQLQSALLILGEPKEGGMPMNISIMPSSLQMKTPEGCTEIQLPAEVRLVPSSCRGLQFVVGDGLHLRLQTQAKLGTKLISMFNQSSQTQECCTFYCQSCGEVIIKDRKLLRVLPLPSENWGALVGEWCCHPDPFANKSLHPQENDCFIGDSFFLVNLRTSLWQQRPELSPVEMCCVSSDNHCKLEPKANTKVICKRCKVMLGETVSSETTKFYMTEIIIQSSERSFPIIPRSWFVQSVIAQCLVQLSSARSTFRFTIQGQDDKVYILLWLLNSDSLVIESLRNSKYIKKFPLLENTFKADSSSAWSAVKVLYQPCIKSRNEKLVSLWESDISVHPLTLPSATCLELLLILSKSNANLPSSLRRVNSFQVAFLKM
UniProt Q5TAX3: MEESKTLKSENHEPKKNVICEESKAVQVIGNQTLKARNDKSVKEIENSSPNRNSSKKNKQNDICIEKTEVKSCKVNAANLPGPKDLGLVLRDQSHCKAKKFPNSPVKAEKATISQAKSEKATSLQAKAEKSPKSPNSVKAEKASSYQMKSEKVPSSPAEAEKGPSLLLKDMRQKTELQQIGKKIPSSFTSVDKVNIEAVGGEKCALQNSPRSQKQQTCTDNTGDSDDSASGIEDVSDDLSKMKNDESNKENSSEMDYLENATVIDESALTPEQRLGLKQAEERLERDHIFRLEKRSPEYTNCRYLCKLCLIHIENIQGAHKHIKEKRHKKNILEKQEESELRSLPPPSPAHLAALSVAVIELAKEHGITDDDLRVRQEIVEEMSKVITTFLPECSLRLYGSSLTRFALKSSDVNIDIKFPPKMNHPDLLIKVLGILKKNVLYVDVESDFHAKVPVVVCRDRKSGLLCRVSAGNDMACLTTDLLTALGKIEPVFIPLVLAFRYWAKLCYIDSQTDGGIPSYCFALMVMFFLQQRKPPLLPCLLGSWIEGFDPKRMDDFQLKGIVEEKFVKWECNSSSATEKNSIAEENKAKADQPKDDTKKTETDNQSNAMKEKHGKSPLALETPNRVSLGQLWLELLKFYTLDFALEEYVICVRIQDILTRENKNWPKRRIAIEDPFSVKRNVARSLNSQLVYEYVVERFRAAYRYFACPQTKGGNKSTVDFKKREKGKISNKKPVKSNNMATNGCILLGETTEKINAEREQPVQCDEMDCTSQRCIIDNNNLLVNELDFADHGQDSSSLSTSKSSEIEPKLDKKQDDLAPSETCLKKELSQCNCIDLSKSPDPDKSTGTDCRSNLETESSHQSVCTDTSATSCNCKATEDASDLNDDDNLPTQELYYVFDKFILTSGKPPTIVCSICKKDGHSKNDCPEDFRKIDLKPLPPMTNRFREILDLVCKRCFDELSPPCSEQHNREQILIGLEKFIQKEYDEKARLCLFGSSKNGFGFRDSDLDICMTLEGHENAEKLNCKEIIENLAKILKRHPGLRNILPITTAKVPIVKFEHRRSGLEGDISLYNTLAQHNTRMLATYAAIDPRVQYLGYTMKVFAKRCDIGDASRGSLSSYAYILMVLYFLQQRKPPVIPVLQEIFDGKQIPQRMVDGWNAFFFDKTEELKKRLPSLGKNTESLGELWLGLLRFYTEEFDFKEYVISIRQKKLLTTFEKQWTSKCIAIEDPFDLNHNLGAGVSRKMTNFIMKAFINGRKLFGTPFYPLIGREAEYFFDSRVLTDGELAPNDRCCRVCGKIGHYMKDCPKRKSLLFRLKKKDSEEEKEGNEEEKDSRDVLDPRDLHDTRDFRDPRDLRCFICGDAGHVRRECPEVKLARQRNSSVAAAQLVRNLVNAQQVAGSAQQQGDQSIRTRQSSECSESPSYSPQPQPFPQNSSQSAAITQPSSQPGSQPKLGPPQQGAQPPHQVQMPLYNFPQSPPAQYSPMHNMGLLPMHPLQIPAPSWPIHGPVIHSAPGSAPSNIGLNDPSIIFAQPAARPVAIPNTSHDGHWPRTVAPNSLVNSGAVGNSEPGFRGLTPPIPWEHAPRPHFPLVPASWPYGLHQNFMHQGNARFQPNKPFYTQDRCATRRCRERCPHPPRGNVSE
UniProt O15042: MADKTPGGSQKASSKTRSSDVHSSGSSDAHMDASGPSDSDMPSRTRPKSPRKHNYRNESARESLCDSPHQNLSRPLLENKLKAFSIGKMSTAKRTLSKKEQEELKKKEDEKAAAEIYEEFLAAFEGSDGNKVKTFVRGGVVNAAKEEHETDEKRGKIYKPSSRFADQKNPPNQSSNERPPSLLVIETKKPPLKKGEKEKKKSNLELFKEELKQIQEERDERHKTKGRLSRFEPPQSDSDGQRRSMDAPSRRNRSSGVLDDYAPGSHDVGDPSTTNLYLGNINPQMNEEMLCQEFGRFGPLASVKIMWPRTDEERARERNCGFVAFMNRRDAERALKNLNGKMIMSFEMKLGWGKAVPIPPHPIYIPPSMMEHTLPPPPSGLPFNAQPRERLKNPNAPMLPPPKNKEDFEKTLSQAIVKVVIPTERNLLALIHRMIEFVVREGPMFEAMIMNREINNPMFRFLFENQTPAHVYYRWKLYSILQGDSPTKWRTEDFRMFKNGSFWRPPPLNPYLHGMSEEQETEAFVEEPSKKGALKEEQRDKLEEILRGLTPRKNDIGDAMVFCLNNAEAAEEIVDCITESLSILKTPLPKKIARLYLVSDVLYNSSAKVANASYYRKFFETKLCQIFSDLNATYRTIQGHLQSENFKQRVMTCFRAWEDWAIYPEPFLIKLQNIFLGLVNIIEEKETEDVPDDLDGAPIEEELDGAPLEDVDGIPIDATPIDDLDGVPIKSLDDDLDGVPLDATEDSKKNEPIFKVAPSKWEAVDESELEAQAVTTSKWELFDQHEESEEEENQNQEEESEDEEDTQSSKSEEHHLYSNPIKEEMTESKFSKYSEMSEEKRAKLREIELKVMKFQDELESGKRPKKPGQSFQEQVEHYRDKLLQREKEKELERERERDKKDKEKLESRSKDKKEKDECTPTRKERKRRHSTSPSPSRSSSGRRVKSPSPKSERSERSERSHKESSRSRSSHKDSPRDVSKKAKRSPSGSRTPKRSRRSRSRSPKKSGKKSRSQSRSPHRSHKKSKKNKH
UniProt Q712K3: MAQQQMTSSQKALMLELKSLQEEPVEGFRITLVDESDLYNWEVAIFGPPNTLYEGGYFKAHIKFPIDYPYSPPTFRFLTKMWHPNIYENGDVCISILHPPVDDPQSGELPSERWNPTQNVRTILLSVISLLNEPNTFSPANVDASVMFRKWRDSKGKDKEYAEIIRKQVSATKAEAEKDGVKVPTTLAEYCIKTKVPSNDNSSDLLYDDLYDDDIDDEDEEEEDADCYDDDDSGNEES

Our source for the log2 fold change values is the supplement of paper PMC10849652.

Compound in this assay: CNc1nc(-c2ccc3c(N)n[nH]c3c2)cc(N2C[C@@H](C(=O)NC3CCCCC3)CC[C@H]2C)n1
The assay is described as follows: log2 fold change, soluble protein after heating vs DMSO (PISA); higher = thermal stabilisation; K562 lysate, 10 uM; active = over 0.2 and 3.5 SD of the protein, either way, in both replicates (recomputed). Summed up: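 Dounce homogenisation of K562 pellets in PBS pH 7.4 with 1 mM MgCl2 produced a crude extract, used at 1 mg/mL protein. Exposure to 10 μM compound lasted 30 min, and aliquots were then heated for 3 min across 48°C-58°C, pooled and brought to 0.5% NP-40 at 4°C. The supernatant after 21,000xg for 90 min was quantified by TMTpro 16plex LC-MS/MS with channel sums equalised. Duplicate values are given as log-two fold change in thermal stability relative to solvent controls.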
As for UCK1 isoform 4 (UniProt Q9HA47), the log2 fold change is inactive: 0.077.

TUBA3C (UniProt P0DPH7): the log2 fold change is inactive: -0.018.

For the target UBE2Z (UniProt Q9H832), the log2 fold change is inactive: -0.062.

Consider UBE2F isoform 2 (UniProt Q969M7), for which the log2 fold change was inactive: -0.051.

Turning to TUBAL3 (UniProt A6NHL2), the log2 fold change is inactive: 0.039.

For the target UBXN4 (UniProt Q92575), the log2 fold change is inactive: -0.019.

Turning to UBE4A isoform 2 (UniProt Q14139), the log2 fold change was inactive: -0.073.

Consider UBAP1 (UniProt Q9NZ09), for which the log2 fold change was inactive: -0.024.

As for UBE2G2 (UniProt P60604), the log2 fold change was inactive: -0.052.

As for UBR1 (UniProt Q8IWV7), the log2 fold change is inactive: -0.03.

Regarding TXLNG (UniProt Q9NUQ3), the log2 fold change was inactive: -0.009.

Consider UBE3D (UniProt Q7Z6J8), for which the log2 fold change is inactive: 0.105.

Consider TUT4 (UniProt Q5TAX3), for which the log2 fold change was inactive: 0.039.

As for TWF2 (UniProt Q6IBS0), the log2 fold change is inactive: 0.031.

Consider U2SURP (UniProt O15042), for which the log2 fold change was inactive: -0.003.

For UBA2 (UniProt Q9UBT2), the log2 fold change is inactive: 0.015.

Consider TXNDC5 (UniProt Q8NBS9), for which the log2 fold change is inactive: 0.022.

On to UBE2R2 (UniProt Q712K3), for which the log2 fold change is inactive: -0.003.

As to UBE2L3 isoform 3 (UniProt P68036), the log2 fold change was inactive: 0.013.

On to UBE3A (UniProt Q05086), for which the log2 fold change is inactive: 0.008.

Turning to UBAP2L isoform 5 (UniProt Q14157), the log2 fold change was inactive: 0.038.

Turning to TUBGCP3 (UniProt Q96CW5), the log2 fold change is inactive: -0.024.
